According to the supplement of paper PMC10338343:
± gives the standard deviation. The entries are a selection whose mix differs from that of the whole data set. Many of these values have a large error.

What follows are sequences tested on MIWI (PIWIL1) piRISC loaded with Kctd7 piRNA (30 nt) (assay: pre-steady-state target cleavage rate (min^-1); MIWI and MILI are mouse PIWI proteins and EfPiwi is from a freshwater sponge; tags in brackets are library labels; higher = faster piRNA-guided slicing of the target). Conditions: guide: Kctd7 piRNA 5'p-UGUUAAUCUCUCAGAGAAGGUGACAGUGAU; auxiliary factor: 500 nM mouse GTSF1.
In short: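 Cleave-'n-Seq reactions paired 0.1 nM transcribed, DNA-blocked target RNA library with 1 nM active affinity-purified piRISC holding one synthetic guide, plus or minus 500 nM GTSF1 partner protein, in HEPES–potassium acetate buffer at 33 °C for 0–8 or 0–960 min. After sequencing of uncleaved targets and normalisation to depth and weakly complementary targets, the pre-steady-state cleavage rate was taken from a burst-and-steady-state fit. Three trials were pooled, and k3 was capped at 0.0001 min^-1.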
For UAGUGUGUCAGCUUCUCUGAGAGAUAUUGA, the “pre-steady-state target cleavage rate” value was 0.00303 ± 0.0041.
With UAGUGACAGUGCAUCUCUGAGAGAUUUACA the “pre-steady-state target cleavage rate” value was 0.000311 ± 0.018.
With UAGACUGAGACCUUCUCUGAGAGAUUUUGA the “pre-steady-state target cleavage rate” value was 0.0025 ± 0.003.
In the case of UAGUGACAGACCUACUCUGACAGAUUAACA, the “pre-steady-state target cleavage rate” value is reported as 0.00139 ± 0.0068.
For UAGUCUGUCACCUUCUGAGAGAGAUAUUGA, the “pre-steady-state target cleavage rate” value was 0.00166 ± 0.0068.
In the case of UAGUGACUCACCUUCCUGAGAGAUUAACA, the “pre-steady-state target cleavage rate” value is reported as 0.00331 ± 0.0042.
UAGUCUGUCACCUUCUCUGUCAGAUAUUGA was tested, and the “pre-steady-state target cleavage rate” value was 0.00355 ± 0.0047.
For UAGUGACAGUGGAAGAGUGAGUGAAUAACA, the “pre-steady-state target cleavage rate” value was 0.000216 ± 0.018.
With UACACUGUCACCUUGCUCUGAGAGAUUAACA the “pre-steady-state target cleavage rate” value was 1.01 ± 0.17.
With UAGUGACAGACCUUCUCUGAUGAGAUUAACA the “pre-steady-state target cleavage rate” value was 0.000945 ± 0.012.
In the case of UAGUCUGUCUGGUUCUCUGAGAGAUUAAGA, the “pre-steady-state target cleavage rate” value is reported as 0.00108 ± 0.0055.
UAGUGACUGCACCUUCUCUGAGAGAUUAACA was tested, and the “pre-steady-state target cleavage rate” value was 0.77 ± 0.05.
UAGUGACAGUGGAAGAGUGAGAGUUUUACA was tested, and the “pre-steady-state target cleavage rate” value was 0.000279 ± 0.026.
In the case of UAGUGACAGUGCUUCUCUGAGUGUUUAACA, the “pre-steady-state target cleavage rate” value is reported as 0.000137 ± 0.021.
In the case of UAGUGACAGUCCUUCUCAGACAGAUUAACA, the “pre-steady-state target cleavage rate” value is reported as 0.00145 ± 0.0049.
For UAGUGACAGAGCUUCUCUGAGAGAUUUUGA, the “pre-steady-state target cleavage rate” value was 0.000321 ± 0.018.
In the case of “UAGUGACAGUCCUUCUCUCUCUCUAAUUGA [g13:g20:cont:t1A]”, the “pre-steady-state target cleavage rate” value is reported as 0.000163 ± 0.03.
In the case of UAGUGACAGUCGUUCUCUGAGAGUUUAACA, the “pre-steady-state target cleavage rate” value is reported as 0.000859 ± 0.012.
UAGUCUGAGUCCUUCUCUGAGAGAUAUUGA was tested, and the “pre-steady-state target cleavage rate” value was 0.00122 ± 0.0049.
With UAGUGACAGUCCUUCACUGAGAGAUUAAGA the “pre-steady-state target cleavage rate” value was 0.00122 ± 0.0069.
With UACACUGUACACCUUCUCUGAGAGAUUAACA the “pre-steady-state target cleavage rate” value was 0.623 ± 0.03.
In the case of UAGUGACUCAGGUUCUCUGAGAGAUUAACA, the “pre-steady-state target cleavage rate” value is reported as 0.00154 ± 0.0039.
For UAGUGACAGUGGUUAUCUGAGAGAUUAACA, the “pre-steady-state target cleavage rate” value was 0.000185 ± 0.03.
UUCACUGUCACGUUCUCUGAGAGAUAUUGA was tested, and the “pre-steady-state target cleavage rate” value was 0.00298 ± 0.0037.
For UAGUGACUCACCUUCUUCUGAGAGAUUAACA, the “pre-steady-state target cleavage rate” value was 0.00337 ± 0.0044.
In the case of UAGUGACAGUGGAAGAGAGAGUGAAUAACA, the “pre-steady-state target cleavage rate” value is reported as 0.000316 ± 0.014.
“UAGACUGUCACCUUCUCUGUCUCUAAUUGA [g12:g27:cont:t1A]” was tested, and the “pre-steady-state target cleavage rate” value was 0.000315 ± 0.012.
UAGUGACAGUCCUUCUCUCAGAGAUUAAGA was tested, and the “pre-steady-state target cleavage rate” value was 0.000811 ± 0.008.
UAGACUGUCACCUUCUCUCUGAGAUAUUGA was tested, and the “pre-steady-state target cleavage rate” value was 0.000409 ± 0.0084.
UACACUGUCACCAUUCUCUGAGAGAUUAACA was tested, and the “pre-steady-state target cleavage rate” value was 0.674 ± 0.035.
With UAGUGACAGUCCUUCUCUCAGAGAUUUACA the “pre-steady-state target cleavage rate” value was 0.00153 ± 0.0053.
With UAGUGACAGUCCAUCUCUCAGAGAUUAACA the “pre-steady-state target cleavage rate” value was 0.00113 ± 0.0071.
UUCUCUGUCACCAUCUCUGAGAGAUUAACA was tested, and the “pre-steady-state target cleavage rate” value was 0.514 ± 0.023.
For UACACUCGUCACCUUCUCUGAGAGAUUAACA, the “pre-steady-state target cleavage rate” value was 0.77 ± 0.035.
With UAGUGACAGUCCUUCUCUGGAGAUUAACA the “pre-steady-state target cleavage rate” value was 0.00118 ± 0.0053.
UAGUGACAGUGGAUCUCUGAGGGAUUAACA was tested, and the “pre-steady-state target cleavage rate” value was 0.000358 ± 0.012.
With UACACUGGUCACCUUCUCUGAGAGAUUAACA the “pre-steady-state target cleavage rate” value was 0.676 ± 0.038.
With UAGUGACAGACCUUCACUGAGAGAUUUUGA the “pre-steady-state target cleavage rate” value was 0.0022 ± 0.0057.
In the case of UAGUGACAGUGGAAGAGACACAGAUUAUCA, the “pre-steady-state target cleavage rate” value is reported as 0.000403 ± 0.02.
For UAGUGACAGUCCUUCUCUGAUGAGAUUAACA, the “pre-steady-state target cleavage rate” value was 0.000188 ± 0.011.
UAGUGACAGACCUCUCUGAGAGAUUAACA was tested, and the “pre-steady-state target cleavage rate” value was 0.0034 ± 0.0036.
With AUCACUGUCACCUUCUCUGACUCAUUAUGA the “pre-steady-state target cleavage rate” value was 0.00142 ± 0.0058.
For UAGUGAGUCACCUUCUGUCAGAGAUUAACA, the “pre-steady-state target cleavage rate” value was 0.00937 ± 0.0041.
In the case of UAGUGACAGUCCUUGUGUGAGAGAUUAACA, the “pre-steady-state target cleavage rate” value is reported as 0.000594 ± 0.015.
For UAGUGACUCACCUUCUUGAGAGAUUAACA, the “pre-steady-state target cleavage rate” value was 0.000852 ± 0.0098.
“UAGUCUGUCACCUUCUCACUCUCUAAUUGA [g14:g26:cont:t1A]” was tested, and the “pre-steady-state target cleavage rate” value was 0.00094 ± 0.009.
With UAGUGACAGUGCUUCUGUGAGAGAAUAACA the “pre-steady-state target cleavage rate” value was 0.0021 ± 0.0056.
For UAGUGACUCACCUUCAGAGAGAGAUAUUGA, the “pre-steady-state target cleavage rate” value was 0.000375 ± 0.022.
With UAGUGAGUCACCUUCAGAGAGAGAUUAUGA the “pre-steady-state target cleavage rate” value was 0.0015 ± 0.0099.
With UAGUCUGUCACCUUCUGAGAGAGAUUAUGA the “pre-steady-state target cleavage rate” value was 0.00348 ± 0.0046.
UAGUGACAGACCUUCUCUGAGAGAAAAAGA was tested, and the “pre-steady-state target cleavage rate” value was 0.000426 ± 0.018.
For UUCACUGUCACCUUCUCUGAGACUAUAAGA, the “pre-steady-state target cleavage rate” value was 0.00175 ± 0.0042.
For UAGUGACUCACCUUCUCUCUCAGAUUAACA, the “pre-steady-state target cleavage rate” value was 0.000441 ± 0.014.
In the case of AUACUGUCACCUUCUCUGAGAGAUUAACA, the “pre-steady-state target cleavage rate” value is reported as 0.756 ± 0.043.
In the case of UAGUGUGUCACCUUGAGUGAGAGAUUUUGA, the “pre-steady-state target cleavage rate” value is reported as 0.00119 ± 0.0095.
With UUCACUGUCACCUUCUCUGACUCAUUAAGA the “pre-steady-state target cleavage rate” value was 0.00222 ± 0.0036.
In the case of UAGUGAGAGACCUUCUCUGAGAGAUAUUGA, the “pre-steady-state target cleavage rate” value is reported as 0.0031 ± 0.0047.
For UAGUGACAGUCCUUCUCAGAGACAUUAACA, the “pre-steady-state target cleavage rate” value was 0.00301 ± 0.0033.
With UACACUGUCACCUUCUCUGUCUGAUUUUGA the “pre-steady-state target cleavage rate” value was 0.00432 ± 0.0066.
With UAGUGACAGUGCUUCUCUGAGAGAUGAACA the “pre-steady-state target cleavage rate” value was 0.00101 ± 0.0037.
For UAGUGUGUCACCUUCUCUGAGUCAUUUUGA, the “pre-steady-state target cleavage rate” value was 0.00226 ± 0.005.
For UAGUGACACACCUUCUCUGACUCAUUAAGA, the “pre-steady-state target cleavage rate” value was 0.000302 ± 0.0086.
For UAGUGACAGUGGAAGACAGACAGAUUAACA, the “pre-steady-state target cleavage rate” value was 0.000254 ± 0.023.
For UUCACUGUCACUUUCUCUGAGAGAUUAACA, the “pre-steady-state target cleavage rate” value was 0.691 ± 0.026.
“UUCACUGUCACCUUCUCUCUCUCUAAUUGA [g13:g29:cont:t1A]” was tested, and the “pre-steady-state target cleavage rate” value was 0.00292 ± 0.0046.
For UAGACUGUCACCUUCUCUGACAGAUUUUGA, the “pre-steady-state target cleavage rate” value was 0.0004 ± 0.012.
With UAGUGACAGUCCUUCUCUGACUCAUUAACA the “pre-steady-state target cleavage rate” value was 0.000149 ± 0.021.
UAGUGACAGUCCUUCUCUGAGUCAUUAACA was tested, and the “pre-steady-state target cleavage rate” value was 0.000476 ± 0.01.
In the case of UAGUGACAGUGGAACUCUGAGCAGAUUAACA, the “pre-steady-state target cleavage rate” value is reported as 0.00398 ± 0.0068.
For UAGACUGUCAGCUUCUCUGAGAGAUAUUGA, the “pre-steady-state target cleavage rate” value was 0.000414 ± 0.013.
In the case of UAGUGACACACCUUCUCUGAGACAUUUUGA, the “pre-steady-state target cleavage rate” value is reported as 0.000326 ± 0.019.
UAGUGACAGUGGAUCUCUGAGAGAUUGACA was tested, and the “pre-steady-state target cleavage rate” value was 0.000421 ± 0.015.
